Source: the supplement of paper PMC10849652
This is one part of the list.

The chains behind the UniProt entries cited, without tags or fusion partners. Where a name states a change or a piece, a line headed by the entry shows the natural chain unless it says otherwise.
UniProt Q8TD08: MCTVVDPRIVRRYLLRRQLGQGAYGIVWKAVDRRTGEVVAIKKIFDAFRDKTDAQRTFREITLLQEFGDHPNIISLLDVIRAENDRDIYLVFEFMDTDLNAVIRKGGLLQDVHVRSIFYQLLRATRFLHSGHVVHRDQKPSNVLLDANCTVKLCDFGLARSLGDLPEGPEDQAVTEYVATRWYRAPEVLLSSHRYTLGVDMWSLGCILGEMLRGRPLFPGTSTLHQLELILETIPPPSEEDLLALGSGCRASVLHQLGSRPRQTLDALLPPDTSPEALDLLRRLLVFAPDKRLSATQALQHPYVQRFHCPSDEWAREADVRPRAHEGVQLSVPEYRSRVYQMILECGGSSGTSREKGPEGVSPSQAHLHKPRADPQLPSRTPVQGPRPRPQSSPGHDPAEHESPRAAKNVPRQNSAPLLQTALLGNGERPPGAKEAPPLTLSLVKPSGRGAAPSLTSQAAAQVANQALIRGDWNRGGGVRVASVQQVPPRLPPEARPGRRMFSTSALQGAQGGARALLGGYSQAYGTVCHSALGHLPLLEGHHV
UniProt O95819: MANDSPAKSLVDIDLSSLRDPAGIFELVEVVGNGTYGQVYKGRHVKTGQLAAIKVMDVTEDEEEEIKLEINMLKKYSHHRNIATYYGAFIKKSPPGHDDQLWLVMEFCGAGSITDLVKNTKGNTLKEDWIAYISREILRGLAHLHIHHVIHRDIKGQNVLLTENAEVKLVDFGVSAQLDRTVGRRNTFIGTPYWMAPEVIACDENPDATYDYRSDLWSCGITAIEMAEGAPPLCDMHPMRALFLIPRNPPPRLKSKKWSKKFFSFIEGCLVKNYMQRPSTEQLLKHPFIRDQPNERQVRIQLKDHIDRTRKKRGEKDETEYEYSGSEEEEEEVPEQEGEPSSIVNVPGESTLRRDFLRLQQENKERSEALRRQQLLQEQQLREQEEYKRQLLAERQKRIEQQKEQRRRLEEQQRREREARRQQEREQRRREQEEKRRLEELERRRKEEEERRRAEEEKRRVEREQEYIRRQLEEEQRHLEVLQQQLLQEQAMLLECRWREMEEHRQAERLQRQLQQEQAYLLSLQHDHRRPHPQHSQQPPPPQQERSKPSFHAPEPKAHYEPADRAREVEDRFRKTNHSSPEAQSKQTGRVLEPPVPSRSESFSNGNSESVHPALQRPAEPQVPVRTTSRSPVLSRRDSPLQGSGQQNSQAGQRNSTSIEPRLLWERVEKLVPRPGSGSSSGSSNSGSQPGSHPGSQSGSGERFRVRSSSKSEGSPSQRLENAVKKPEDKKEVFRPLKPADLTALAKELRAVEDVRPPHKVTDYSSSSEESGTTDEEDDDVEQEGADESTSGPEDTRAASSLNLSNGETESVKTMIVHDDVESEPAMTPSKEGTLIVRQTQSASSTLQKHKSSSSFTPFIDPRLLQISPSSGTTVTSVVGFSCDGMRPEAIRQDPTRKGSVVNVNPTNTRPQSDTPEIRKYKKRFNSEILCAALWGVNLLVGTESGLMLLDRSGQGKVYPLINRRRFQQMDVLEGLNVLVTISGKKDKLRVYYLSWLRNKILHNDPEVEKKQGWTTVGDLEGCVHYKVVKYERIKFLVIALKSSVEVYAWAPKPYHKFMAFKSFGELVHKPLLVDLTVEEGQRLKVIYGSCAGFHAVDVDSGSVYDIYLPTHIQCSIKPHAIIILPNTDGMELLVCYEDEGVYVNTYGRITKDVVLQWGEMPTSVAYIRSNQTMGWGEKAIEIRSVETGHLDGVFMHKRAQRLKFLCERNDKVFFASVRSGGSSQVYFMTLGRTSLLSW
UniProt Q8N2S1: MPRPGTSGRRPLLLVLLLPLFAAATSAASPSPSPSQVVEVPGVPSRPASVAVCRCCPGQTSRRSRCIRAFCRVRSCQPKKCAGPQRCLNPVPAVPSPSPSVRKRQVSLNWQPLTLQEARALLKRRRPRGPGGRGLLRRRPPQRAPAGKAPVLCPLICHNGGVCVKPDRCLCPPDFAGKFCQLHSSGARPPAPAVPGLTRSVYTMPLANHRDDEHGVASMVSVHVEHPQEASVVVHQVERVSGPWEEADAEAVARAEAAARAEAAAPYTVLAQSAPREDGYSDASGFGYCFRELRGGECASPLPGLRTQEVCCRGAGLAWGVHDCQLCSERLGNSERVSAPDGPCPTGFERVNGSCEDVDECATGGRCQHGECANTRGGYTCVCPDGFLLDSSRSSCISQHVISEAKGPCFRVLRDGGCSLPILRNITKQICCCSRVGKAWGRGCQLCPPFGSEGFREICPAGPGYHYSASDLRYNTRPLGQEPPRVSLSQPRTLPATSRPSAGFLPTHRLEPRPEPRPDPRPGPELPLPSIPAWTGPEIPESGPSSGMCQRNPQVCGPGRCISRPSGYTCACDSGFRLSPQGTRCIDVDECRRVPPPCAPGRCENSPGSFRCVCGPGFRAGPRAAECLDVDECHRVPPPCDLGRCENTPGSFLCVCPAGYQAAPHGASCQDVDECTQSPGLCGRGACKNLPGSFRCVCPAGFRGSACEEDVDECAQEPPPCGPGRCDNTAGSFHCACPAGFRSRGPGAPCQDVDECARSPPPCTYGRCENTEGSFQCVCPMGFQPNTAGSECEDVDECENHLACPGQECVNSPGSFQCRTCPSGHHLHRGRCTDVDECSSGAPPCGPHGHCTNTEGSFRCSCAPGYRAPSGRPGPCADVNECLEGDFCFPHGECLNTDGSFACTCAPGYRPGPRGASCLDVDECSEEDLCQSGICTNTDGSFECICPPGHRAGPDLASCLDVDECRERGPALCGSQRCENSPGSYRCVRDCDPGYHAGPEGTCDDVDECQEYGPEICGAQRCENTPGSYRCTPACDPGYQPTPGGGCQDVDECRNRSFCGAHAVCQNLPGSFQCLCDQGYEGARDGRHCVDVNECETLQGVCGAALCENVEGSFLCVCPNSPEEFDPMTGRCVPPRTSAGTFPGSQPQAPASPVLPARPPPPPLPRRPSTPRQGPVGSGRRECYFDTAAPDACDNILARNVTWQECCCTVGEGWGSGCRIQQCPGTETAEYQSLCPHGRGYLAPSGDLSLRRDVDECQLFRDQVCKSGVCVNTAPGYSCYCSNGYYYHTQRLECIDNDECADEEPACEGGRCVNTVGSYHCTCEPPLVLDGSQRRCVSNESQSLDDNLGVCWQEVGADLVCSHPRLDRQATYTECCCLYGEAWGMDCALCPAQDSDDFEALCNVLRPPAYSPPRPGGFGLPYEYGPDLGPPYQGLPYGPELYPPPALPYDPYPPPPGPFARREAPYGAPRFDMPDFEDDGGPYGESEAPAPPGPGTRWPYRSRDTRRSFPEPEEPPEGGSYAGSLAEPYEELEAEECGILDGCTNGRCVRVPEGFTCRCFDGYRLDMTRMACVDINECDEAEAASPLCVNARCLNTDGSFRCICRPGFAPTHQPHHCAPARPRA
UniProt Q96JG8: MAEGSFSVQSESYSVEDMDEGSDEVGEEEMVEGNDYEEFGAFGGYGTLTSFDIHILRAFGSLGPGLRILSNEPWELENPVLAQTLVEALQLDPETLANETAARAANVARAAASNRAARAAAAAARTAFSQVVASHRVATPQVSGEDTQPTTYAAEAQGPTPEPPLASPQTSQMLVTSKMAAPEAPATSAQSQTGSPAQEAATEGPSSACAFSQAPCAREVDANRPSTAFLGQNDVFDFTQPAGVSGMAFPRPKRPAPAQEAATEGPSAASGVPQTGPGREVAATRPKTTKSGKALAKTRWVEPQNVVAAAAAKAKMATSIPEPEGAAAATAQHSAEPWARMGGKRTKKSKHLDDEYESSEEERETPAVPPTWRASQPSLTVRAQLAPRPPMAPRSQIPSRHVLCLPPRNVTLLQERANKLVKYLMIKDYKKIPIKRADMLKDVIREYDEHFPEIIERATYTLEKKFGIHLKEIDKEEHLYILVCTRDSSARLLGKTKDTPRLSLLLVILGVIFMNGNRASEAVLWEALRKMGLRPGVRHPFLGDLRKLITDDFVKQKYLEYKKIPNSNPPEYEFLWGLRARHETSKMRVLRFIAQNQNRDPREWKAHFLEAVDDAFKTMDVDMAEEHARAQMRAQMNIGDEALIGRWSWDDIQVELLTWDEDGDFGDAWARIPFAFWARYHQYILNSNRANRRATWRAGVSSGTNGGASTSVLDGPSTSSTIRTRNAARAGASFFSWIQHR
UniProt Q9H992: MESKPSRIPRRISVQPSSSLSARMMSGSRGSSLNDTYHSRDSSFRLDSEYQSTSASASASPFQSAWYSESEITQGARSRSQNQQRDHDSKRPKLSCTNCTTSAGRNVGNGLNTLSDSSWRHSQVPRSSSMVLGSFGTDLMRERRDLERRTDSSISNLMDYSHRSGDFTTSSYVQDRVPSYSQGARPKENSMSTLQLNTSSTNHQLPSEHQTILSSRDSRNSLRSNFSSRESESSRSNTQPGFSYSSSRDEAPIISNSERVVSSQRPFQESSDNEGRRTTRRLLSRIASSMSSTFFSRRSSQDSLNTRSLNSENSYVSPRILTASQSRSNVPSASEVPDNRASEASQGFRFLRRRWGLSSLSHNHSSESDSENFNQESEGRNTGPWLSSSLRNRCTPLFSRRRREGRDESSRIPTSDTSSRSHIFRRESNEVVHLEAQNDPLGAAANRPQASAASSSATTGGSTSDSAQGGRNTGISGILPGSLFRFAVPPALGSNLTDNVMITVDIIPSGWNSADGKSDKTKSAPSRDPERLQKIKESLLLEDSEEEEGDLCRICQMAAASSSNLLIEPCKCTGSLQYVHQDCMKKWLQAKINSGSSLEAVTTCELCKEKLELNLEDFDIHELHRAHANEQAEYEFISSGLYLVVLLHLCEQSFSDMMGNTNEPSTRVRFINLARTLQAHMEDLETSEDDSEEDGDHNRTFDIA
UniProt Q9HAY2: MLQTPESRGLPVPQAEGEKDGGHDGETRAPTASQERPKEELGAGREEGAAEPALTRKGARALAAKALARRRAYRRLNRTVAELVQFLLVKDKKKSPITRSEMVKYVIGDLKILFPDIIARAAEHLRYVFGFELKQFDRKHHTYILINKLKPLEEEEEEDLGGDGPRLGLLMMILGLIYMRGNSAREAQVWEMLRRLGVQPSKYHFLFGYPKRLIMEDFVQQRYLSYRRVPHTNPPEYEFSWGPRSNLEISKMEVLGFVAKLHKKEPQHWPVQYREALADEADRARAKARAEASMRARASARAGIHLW
UniProt O43325: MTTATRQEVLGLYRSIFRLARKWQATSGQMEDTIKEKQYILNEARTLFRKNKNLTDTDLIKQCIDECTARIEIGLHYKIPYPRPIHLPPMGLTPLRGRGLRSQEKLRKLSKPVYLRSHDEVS
UniProt O95382: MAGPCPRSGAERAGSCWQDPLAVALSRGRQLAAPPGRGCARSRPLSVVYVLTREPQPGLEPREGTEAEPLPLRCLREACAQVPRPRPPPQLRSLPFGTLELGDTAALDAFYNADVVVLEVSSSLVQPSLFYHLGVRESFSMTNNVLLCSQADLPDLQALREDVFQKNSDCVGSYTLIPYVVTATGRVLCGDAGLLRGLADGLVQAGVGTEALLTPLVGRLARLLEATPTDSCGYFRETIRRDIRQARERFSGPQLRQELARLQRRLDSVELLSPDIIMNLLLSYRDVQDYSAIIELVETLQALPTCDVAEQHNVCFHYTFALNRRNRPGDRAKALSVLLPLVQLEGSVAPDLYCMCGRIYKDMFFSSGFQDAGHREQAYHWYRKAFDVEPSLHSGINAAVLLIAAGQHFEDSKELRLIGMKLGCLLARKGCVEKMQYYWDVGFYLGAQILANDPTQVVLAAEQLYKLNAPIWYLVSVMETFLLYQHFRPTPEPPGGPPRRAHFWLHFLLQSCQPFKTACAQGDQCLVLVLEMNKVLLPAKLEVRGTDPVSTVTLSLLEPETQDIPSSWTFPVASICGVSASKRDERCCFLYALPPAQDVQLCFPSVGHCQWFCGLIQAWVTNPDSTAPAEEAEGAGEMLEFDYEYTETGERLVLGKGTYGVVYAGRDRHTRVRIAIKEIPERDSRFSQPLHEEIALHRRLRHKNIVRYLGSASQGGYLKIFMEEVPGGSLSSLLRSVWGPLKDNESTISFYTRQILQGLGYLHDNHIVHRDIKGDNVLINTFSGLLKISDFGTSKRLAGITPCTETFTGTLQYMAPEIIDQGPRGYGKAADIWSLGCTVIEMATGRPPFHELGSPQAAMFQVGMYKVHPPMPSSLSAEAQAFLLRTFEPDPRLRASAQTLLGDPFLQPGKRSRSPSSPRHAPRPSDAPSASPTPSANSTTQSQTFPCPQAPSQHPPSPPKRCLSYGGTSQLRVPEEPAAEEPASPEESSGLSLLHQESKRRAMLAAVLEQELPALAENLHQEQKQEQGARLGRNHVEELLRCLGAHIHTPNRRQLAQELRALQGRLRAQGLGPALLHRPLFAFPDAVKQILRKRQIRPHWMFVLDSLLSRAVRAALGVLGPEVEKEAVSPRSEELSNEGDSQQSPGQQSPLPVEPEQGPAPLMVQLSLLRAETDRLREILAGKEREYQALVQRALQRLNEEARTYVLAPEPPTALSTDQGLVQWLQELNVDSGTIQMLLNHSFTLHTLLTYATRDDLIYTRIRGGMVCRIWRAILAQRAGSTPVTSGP

How the values were obtained:
Assay in all cases: log2 fold change, soluble protein after heating vs DMSO (PISA); higher = thermal stabilisation; K562 lysate, 10 uM; active = over 0.2 and 3.5 SD of the protein, either way, in both replicates (recomputed)
[1] = compound: CCn1c(C(=O)N(C2CC2)C2CC2)cc2c3c(ncn3C)c(Nc3cc(C)n(C)n3)nc21
Outline: (§1)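 K562 pellets were dounce-homogenised in PBS pH 7.4 containing 1 mM MgCl2, and the crude extract, at 1 mg/mL protein, was exposed to 10 μM compound for 30 min. Aliquots were heated for 3 min across 48°C-58°C, pooled, brought to 0.5% NP-40 at 4°C and spun at 21,000xg for 90 min, with the supernatant taken as soluble protein. TMTpro 16plex LC-MS/MS with equalised channel sums quantified that protein. Values are log-two fold changes in thermal stability relative to solvent controls, taken from duplicates.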

saracatinib = compound: CN1CCN(CCOc2cc(OC3CCOCC3)c3c(Nc4c(Cl)ccc5c4OCO5)ncnc3c2)CC1 [saracatinib]
Outline: as §1

sotrastaurin = compound: CN1CCN(c2nc(C3=C(c4c[nH]c5ccccc45)C(=O)NC3=O)c3ccccc3n2)CC1 [sotrastaurin]
Outline: as §1

Tubastatin A = compound: CN1CCc2c(c3ccccc3n2Cc2ccc(C(=O)NO)cc2)C1 [Tubastatin A]
Outline: as §1

[2] = compound: CNC(=O)C1=CC=CC=C1NC2=NC(=NC=C2Cl)NC3=C(C=C(C=C3)N4CCOCC4)OC
Outline: as §1

[3] = compound: CNc1nc(-c2ccc3c(N)n[nH]c3c2)cc(N2C[C@@H](C(=O)NC3CCCCC3)CC[C@H]2C)n1
Outline: as §1

alisertib = compound: COc1cc(Nc2ncc3c(n2)-c2ccc(Cl)cc2C(c2c(F)cccc2OC)=NC3)ccc1C(=O)O [alisertib]
Outline: as §1

gefitinib = compound: COc1cc2ncnc(Nc3ccc(F)c(Cl)c3)c2cc1OCCCN1CCOCC1 [gefitinib]
Outline: as §1

[4] = compound: CCCS(=O)(=O)Nc1ccc(F)c(C(=O)c2c[nH]c3ncc(Cl)cc23)c1F
Outline: as §1

barasertib = compound: CCN(CCCOc1ccc2c(Nc3cc(CC(=O)Nc4cccc(F)c4)[nH]n3)ncnc2c1)CCOP(=O)(O)O [barasertib]
Outline: as §1

[5] = compound: CC[C@@H]1C(=O)N(C)c2cnc(Nc3ccc(C(=O)NC4CCN(C)CC4)cc3OC)nc2N1C1CCCC1
Outline: as §1

volasertib = compound: CC[C@@H]1C(=O)N(C)c2cnc(Nc3ccc(C(=O)N[C@H]4CC[C@H](N5CCN(CC6CC6)CC5)CC4)cc3OC)nc2N1C(C)C [volasertib]
Outline: as §1

encorafenib = compound: COC(=O)N[C@@H](C)CNc1nccc(-c2cn(C(C)C)nc2-c2cc(Cl)cc(NS(C)(=O)=O)c2F)n1 [encorafenib]
Outline: as §1

[6] = compound: COC(=O)[C@H](CCSC)NC(=O)C1=C(C=C(C=C1)NC[C@H](CS)N)C2=CC=CC=C2
Outline: as §1

[7] = compound: COc1cc2nc(-c3cc(F)ccc3O)nc(N[C@@H]3CNC[C@H]3C(C)(C)O)c2cc1OC
Outline: as §1

vemurafenib = compound: CCCS(=O)(=O)Nc1ccc(F)c(C(=O)c2c[nH]c3ncc(-c4ccc(Cl)cc4)cc23)c1F [vemurafenib]
Outline: as §1

[8] = compound: CCn1cc(-c2ccnc3[nH]c(-c4cccc(CN(C)C)c4)cc23)c(-c2ccc(NC(=O)N(C)C)cc2)n1
Outline: as §1

[9] = compound: CN1CCC(CNc2ccc3ncc(-c4cccc(OC(F)(F)F)c4)n3n2)CC1
Outline: as §1

alvocidib = compound: CN1CC[C@H](c2c(O)cc(O)c3c(=O)cc(-c4ccccc4Cl)oc23)[C@H](O)C1 [alvocidib]
Outline: as §1

defactinib = compound: CNC(=O)c1ccc(Nc2ncc(C(F)(F)F)c(NCc3nccnc3N(C)S(C)(=O)=O)n2)cc1 [defactinib]
Outline: as §1

Measured: log2 fold change

MAPK15 (UniProt Q8TD08)
inactive: [1] -0.185 | saracatinib 0.039 | sotrastaurin 0.114 | Tubastatin A 0.106 | [2] 0.019 | [3] 0.187 | alisertib -0.075 | gefitinib 0

MAP4K4 isoform 6 (UniProt O95819)
inactive: [4] 0.073 | barasertib 0.06 | [5] 0.06 | volasertib -0.04 | [1] -0.025 | saracatinib 0.006 | Tubastatin A 0.024 | [2] -0.067 | [3] -0.016 | encorafenib 0.207 | [6] -0.034 | [7] -0.058

MARCHF3 (UniProt Q86UD3)
inactive: vemurafenib 0.032 | [5] 0.002 | [8] 0.271 | [9] -0.071 | alvocidib -0.121 | defactinib 0.032 | encorafenib -0.02 | [6] -0.126

LTBR (UniProt P36941)
inactive: [4] 0.047 | barasertib 0.086 | volasertib -0.077 | [8] -0.103 | [9] 0.086 | sotrastaurin 0.098 | alvocidib -0.139 | [2] -0.05 | [7] 0.132

MAPK7 (UniProt Q13164)
inactive: [4] 0.024 | [5] 0.072 | volasertib -0.056 | [8] -0.084 | [9] -0.101 | sotrastaurin -0.031 | alvocidib 0.069 | [2] 0.002 | encorafenib -0.03 | [6] -0.114 | [7] 0.157

MAOA (UniProt P21397)
inactive: saracatinib -1.22 | [3] 0.091

MAGEB10 (UniProt Q96LZ2)
inactive: [8] 0.032 | [9] -0.253 | alvocidib -0.38

MAP4K3 (UniProt Q8IVH8)
inactive: barasertib -0.03 | [1] 0.238 | saracatinib -0.095 | sotrastaurin -0.079 | Tubastatin A -0.136 | [3] -0.361

LYN isoform 2 (UniProt P07948)
inactive: [5] -0.077 | [1] -0.075 | [8] -0.031 | [9] 0.024 | saracatinib 0.353 | sotrastaurin 0.074 | alvocidib 0.138 | Tubastatin A -0.153 | [2] 0.175 | [3] 0.014 | encorafenib -0.063 | [6] 0.301 | alisertib 0.229 | gefitinib 0.054

LTBP4 (UniProt Q8N2S1)
inactive: [4] -0.1 | barasertib -0.232 | [5] -0.009 | volasertib -0.021 | [1] 0.022 | [8] -0.074 | [9] 0.186 | saracatinib 0.032 | sotrastaurin 0.034 | alvocidib -0.067 | Tubastatin A -0.017 | [2] 0.005 | [3] -0.046 | encorafenib 0.044 | [6] -0.006 | alisertib -0.019 | [7] 0.052 | gefitinib -0.08

LTBP1 isoform 4 (UniProt Q14766)
inactive: barasertib 0.071 | [5] 0.033 | [8] 0.054 | [9] 0.148 | saracatinib -0.12 | alvocidib -0.015 | [2] -0.243 | [3] -0.199 | encorafenib 0.013 | [6] -0.179 | alisertib -0.036 | gefitinib 0.065

MAGED4 isoform 4 (UniProt Q96JG8)
inactive: [8] -0.258 | [9] 0.369 | alvocidib -0.077

MARCHF7 (UniProt Q9H992)
inactive: saracatinib 0.02 | [3] -0.023

MAGI1 (UniProt H7C4S7)
inactive: saracatinib 0.074 | [3] -0.083

MACF1, A0A5F9ZGX0
inactive: [8] -0.032 | [9] 0.024 | alvocidib 0

MAGEA6 (UniProt P43360)
inactive: vemurafenib 0.003 | [5] 0.031 | sotrastaurin -0.117 | [2] -0.023 | defactinib 0.058 | encorafenib 0.042 | [6] -0.071

MAP3K8 (UniProt P41279)
inactive: barasertib 0.002 | [8] -0.118 | [9] 0.035 | saracatinib 0.085 | alvocidib -0.142 | [3] -0.206

MAGEF1 (UniProt Q9HAY2)
inactive: [4] 0.07 | volasertib -0.044 | [1] -0.244 | saracatinib 0.067 | Tubastatin A 0.2 | [2] 0.045 | [3] 0.904 | [7] 0.161

MAPK3 (UniProt H0YEX6)
inactive: alisertib -0.128 | gefitinib -0.016

MAFG (UniProt O15525)
inactive: [4] 0.097 | barasertib 0.092 | [5] 0.142 | volasertib -0.036 | [1] -0.078 | [8] -0.128 | [9] 0.01 | saracatinib 0.15 | sotrastaurin -0.006 | alvocidib 0.015 | Tubastatin A -0.075 | [2] 0.094 | [3] -0.009 | encorafenib 0.029 | [6] 0.245 | alisertib 0.177 | [7] 0.066 | gefitinib -0.06

MAP3K4 isoform 2 (UniProt Q9Y6R4)
inactive: sotrastaurin -0.004

MAPKAP1 (UniProt Q9BPZ7)
inactive: [5] 0.031 | [1] 0.005 | saracatinib 0.057 | sotrastaurin -0.045 | Tubastatin A -0.125 | [2] -0.119 | [3] 0.081 | encorafenib -0.051 | [6] 0.036 | alisertib -0.094 | gefitinib 0.07

LYRM1 (UniProt O43325)
inactive: vemurafenib -0.166 | [8] -0.117 | [9] -0.121 | saracatinib -0.052 | sotrastaurin -0.074 | alvocidib -0.343 | [2] 0.083 | defactinib 0.157 | [3] -0.014

MAGEA2 (UniProt P43356)
inactive: [5] 0.1 | saracatinib -0.044 | [3] -0.136 | encorafenib -0.28 | [6] 0.039

MAP3K6 (UniProt O95382)
inactive: vemurafenib -0.006 | [5] 0.164 | defactinib -0.096 | encorafenib 0.167 | [6] -0.031 | alisertib 0.026 | gefitinib -0.022

MACF1 (UniProt E9PLY5)
inactive: [4] -0.053 | barasertib -0.047 | volasertib -0.288 | [8] -0.231 | [9] 0.213 | sotrastaurin 0.018 | alvocidib -0.217 | alisertib -0.024 | [7] 0.101 | gefitinib -0.016

LTBP4 isoform 2 (UniProt Q8N2S1)
inactive: sotrastaurin -0.021

MAST3 (UniProt O60307)
inactive: [4] 0.057 | [5] 0.054 | volasertib -0.011 | [1] 0.052 | saracatinib 0.002 | Tubastatin A -0.08 | [2] -0.075 | [3] -0.042 | encorafenib 0.049 | [6] -0.051 | [7] -0.032

LY6D (UniProt Q14210)
inactive: saracatinib 0.354 | [3] -0.989

Pulled one by one from the list above, 2 records:
MAP3K6 (UniProt O95382)
inactive: vemurafenib -0.006 | [5] 0.164 | defactinib -0.096 | encorafenib 0.167 | [6] -0.031 | alisertib 0.026 | gefitinib -0.022

LTBP4 isoform 2 (UniProt Q8N2S1)
inactive: sotrastaurin -0.021

The list continues.

MANBAL (UniProt Q9NQG1)
inactive: [4] -0.03 | barasertib 0.013 | [5] 0.036 | volasertib -0.005 | [1] -0.014 | [8] 0.01 | [9] 0.008 | alvocidib -0.012 | Tubastatin A 0.013 | [2] 0.046 | encorafenib 0.035 | [6] -0.18 | [7] 0.065

LYL1 (UniProt P12980)
inactive: barasertib -0.032 | [8] 0.078 | [9] 0.028 | sotrastaurin 0.105 | alvocidib 0.05 | [2] 0.034
